PubChem BioAssay AID720505 – Drosophila RNAi Screening Center, 2013
The screen tested about 20,000 reagents; below is an unselected part of those that have a named target and a result. Over the whole deposit, about 2,100 (10%) got an active call. 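Raw plate signals without normalisation; calls rest on control-based scores that were not deposited; replicate 2 separates called from uncalled poorly.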 A plus sign joins genes that one reagent is predicted to hit. Not stated in the record: the amount of reagent, the time to read-out.

Purpose: 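Fly regulators or components of the CRAC channel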 (primary screen)
Cell system: Drosophila S2R+ cells
Reagents: long dsRNA against Drosophila genes
Conditions: thapsigargin (2 µM) in calcium-free buffer to empty internal stores, then 2 mM calcium added back
Read-out: 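Stores emptied by 2 µM thapsigargin without calcium, then 2 mM calcium re-added; fluo-4 fluorescence followed by FLIPR in 384-well plates, per-well averaged endpoint, raw; two screen passes, some wells retested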
Reading the numbers: calcium signal and retest calcium signal: higher = more calcium entry after store depletion
Active means: 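About 1500 genes called as lowering calcium entry, by varying amounts, judged against per-plate control wells with STIM1 as positive and Rho1 as negative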
Calls: active = called as lowering calcium entry; inactive = not called

| target | DRSC id | calcium signal, replicate 1 | calcium signal, replicate 2 | retest calcium signal, replicate 1 | retest calcium signal, replicate 2 | call |
| --- | --- | --- | --- | --- | --- | --- |
| IP3K1 (GeneID 34300) | DRSC02734 | 124 | 102 | – | – | inactive |
| PVRAP (GeneID 38677) | DRSC09966 | 82.4 | 68.7 | – | – | inactive |
| PVRAP (GeneID 38677) | DRSC10577 | 40.4 | 63.6 | – | – | active |
| Gr92a (GeneID 117473) | DRSC21631 | 126 | 89.3 | – | – | inactive |
| CG34398 (GeneID 5740462) | DRSC01052 | 68.4 | 106 | 113 | 110 | active |
| CG34398 (GeneID 5740462) | DRSC02510 | 64 | 76.9 | – | – | active |
| CG34398 (GeneID 5740462) | DRSC02511 | 48.8 | 89.8 | – | – | active |
| CG34398 (GeneID 5740462) | DRSC03228 | 80.3 | 104 | – | – | active |
| CG34398 (GeneID 5740462) | DRSC23293 | 123 | 146 | – | – | inactive |
| apolpp (GeneID 43827) | DRSC17216 | 137 | 182 | – | – | inactive |
| Obp83b (GeneID 40738) | DRSC12360 | 114 | 172 | – | – | inactive |
| Art2 (GeneID 33631) | DRSC00627 | 105 | 115 | – | – | inactive |
| mRpL15 (GeneID 40261) | DRSC11771 | 144 | 143 | – | – | inactive |
| CG11380 (GeneID 31065) | DRSC18632 | 88.2 | 130 | – | – | inactive |
| CG11380 (GeneID 31065) | DRSC23223 | 98.5 | 131 | – | – | inactive |
| Act79B (GeneID 40444) | DRSC11604 | 90.5 | 125 | – | – | inactive |
| Or49a (GeneID 36350) | DRSC07493 | 109 | 166 | – | – | inactive |
| CG15923 (GeneID 42443) | DRSC15129 | 146 | 278 | – | – | inactive |
| Ppm1 (GeneID 38071) | DRSC08260 | 87.4 | 105 | – | – | inactive |
| CG15209 (GeneID 32011) | DRSC19655 | 97.6 | 118 | – | – | inactive |
| Arp2 (GeneID 32623) | DRSC19332 | 99.8 | 115 | – | – | inactive |
| CG11663 (GeneID 31036) | DRSC17793 | 120 | 181 | – | – | inactive |
| CG11663 (GeneID 31036) | DRSC23063 | 102 | 160 | – | – | inactive |
| CG16727 (GeneID 42338) | DRSC15139 | 197 | 184 | – | – | inactive |
| CG13053 (GeneID 50274) | DRSC09934 | 78.1 | 110 | – | – | inactive |
| egh (GeneID 31239) | DRSC18771 | 95.4 | 130 | – | – | inactive |
| CG32428 (GeneID 50105) | DRSC11697 | 121 | 120 | – | – | inactive |
| CG32428 (GeneID 50105) | DRSC11768 | 110 | 156 | – | – | inactive |
| Iru (GeneID 41080) | DRSC14457 | 141 | 99.4 | – | – | inactive |
| ATPsyndelta (GeneID 31950) | DRSC18248 | 38 | 54.8 | – | – | active |
| CngB (GeneID 37479) | DRSC04297 | 69.3 | 128 | – | – | active |
| CG31029 (GeneID 318562) | DRSC15422 | 232 | 142 | – | – | inactive |
| bcd (GeneID 40830) | DRSC12624 | 116 | 105 | – | – | inactive |
| CG12581 (GeneID 40522) | DRSC12206 | 156 | 119 | – | – | inactive |
| CG12581 (GeneID 40522) | DRSC12207 | 123 | 158 | – | – | inactive |
| TwdlG (GeneID 40535) | DRSC12229 | 81.9 | 170 | – | – | inactive |
| CG13895 (GeneID 38087) | DRSC08365 | 89.4 | 74.6 | – | – | inactive |
| Ktch (GeneID 43681) | DRSC15094 | 151 | 159 | – | – | inactive |
| CG41520 (GeneID 5740294) | DRSC21102 | 129 | 115 | – | – | inactive |
| CG41520 (GeneID 5740294) | DRSC21103 | 222 | 117 | – | – | inactive |
| CG3919 (GeneID 39582) | DRSC10389 | 125 | 79.6 | – | – | inactive |
| CG13086 (GeneID 35208) | DRSC02190 | 149 | 108 | – | – | inactive |
| CG15721 (GeneID 32247) | DRSC19688 | 128 | 108 | – | – | inactive |
| NimB1 (GeneID 34813) | DRSC01880 | 99.7 | 88.5 | – | – | inactive |
| dy (GeneID 32130) | DRSC20325 | 116 | 81.7 | – | – | inactive |
| spidey (GeneID 31703) | DRSC17932 | 116 | 116 | – | – | inactive |
| Cpr49Ah (GeneID 36354) | DRSC07204 | 101 | 180 | – | – | inactive |
| CG40498 (GeneID 3354890) | DRSC07786 | 112 | 98.9 | – | – | inactive |
| geminin (GeneID 35563) | DRSC04984 | 103 | 194 | – | – | inactive |
| CG2901 (GeneID 31338) | DRSC18239 | 101 | 74.5 | – | – | inactive |
| Hsp26 (GeneID 39075) | DRSC11189 | 103 | 91.7 | – | – | inactive |
| CG14053 (GeneID 31197) | DRSC17908 | 114 | 116 | – | – | inactive |
| CG42327 (GeneID 41401) | DRSC14936 | 126 | 111 | – | – | inactive |
| CG42327 (GeneID 41401) | DRSC14937 | 153 | 95.5 | – | – | inactive |
| CG42327 (GeneID 41401) | DRSC23337 | 109 | 145 | – | – | inactive |
| Pka-R2 (GeneID 36041) | DRSC07509 | 82.7 | 103 | – | – | inactive |
| BEAF-32 + CG42254 (retired record) | DRSC05503 | 68.4 | 122 | – | – | inactive |
| CngA (GeneID 36806) | DRSC06580 | 120 | 138 | – | – | inactive |
| CngA (GeneID 36806) | DRSC07362 | 202 | 138 | – | – | inactive |
| CG10918 (GeneID 33123) | DRSC20472 | 66.8 | 103 | – | – | active |
| CG34015 (GeneID 3885570) | DRSC19140 | 86.5 | 121 | – | – | inactive |
| Cf2 (GeneID 33692) | DRSC00744 | 146 | 85.7 | – | – | inactive |
| Cf2 (GeneID 33692) | DRSC23015 | 168 | 144 | – | – | inactive |
| RpS26 (GeneID 35098) | DRSC03420 | 73 | 86.8 | – | – | active |
| CG31683 + CG18858 | DRSC02703 | 211 | 85.5 | – | – | inactive |
| CG5021 (GeneID 39025) | DRSC10469 | 89.9 | 70.5 | – | – | inactive |
| org-1 (GeneID 31778) | DRSC18810 | 208 | 125 | – | – | inactive |
| org-1 (GeneID 31778) | DRSC22974 | 94.2 | 80.4 | – | – | inactive |
| CG8738 (GeneID 35855) | DRSC07256 | 121 | 173 | – | – | inactive |
| Vha16-4 (GeneID 36900) | DRSC07321 | 213 | 99.3 | – | – | inactive |
| puc (GeneID 40958) | DRSC17034 | 99.1 | 189 | – | – | inactive |
| Rca1 (GeneID 33959) | DRSC03407 | 95.9 | 165 | – | – | inactive |
| CenG1A (GeneID 34803) | DRSC02538 | 114 | 95.9 | – | – | inactive |
| CenG1A (GeneID 34803) | DRSC03505 | 105 | 115 | – | – | inactive |
| CenG1A (GeneID 34803) | DRSC03506 | 80.5 | 115 | – | – | active |
| CG13690 (GeneID 33213) | DRSC00359 | 219 | 136 | – | – | inactive |
| CG10237 (GeneID 35222) | DRSC02029 | 110 | 144 | – | – | inactive |
| CG32713 (GeneID 318166) | DRSC22766 | 145 | 171 | – | – | inactive |
| knrl (GeneID 40285) | DRSC11892 | 132 | 118 | – | – | inactive |
| knrl (GeneID 40285) | DRSC23245 | 86.9 | 123 | – | – | inactive |
| crc (GeneID 47767) | DRSC03513 | 192 | 75.9 | – | – | inactive |
| Cpr97Eb (GeneID 43259) | DRSC15123 | 153 | 143 | – | – | inactive |
| CG42700 (GeneID 36330) | DRSC06292 | 96.6 | 142 | – | – | inactive |
| CG42700 (GeneID 36330) | DRSC06293 | 111 | 157 | – | – | inactive |
| CG42700 (GeneID 36330) | DRSC23109 | 149 | 178 | – | – | inactive |

A portion from the list above, for reference:
| target | DRSC id | calcium signal, replicate 1 | calcium signal, replicate 2 | retest calcium signal, replicate 1 | retest calcium signal, replicate 2 | call |
| --- | --- | --- | --- | --- | --- | --- |
| Pka-R2 (GeneID 36041) | DRSC07509 | 82.7 | 103 | – | – | inactive |
| BEAF-32 + CG42254 (retired record) | DRSC05503 | 68.4 | 122 | – | – | inactive |
| CngA (GeneID 36806) | DRSC06580 | 120 | 138 | – | – | inactive |
| CngA (GeneID 36806) | DRSC07362 | 202 | 138 | – | – | inactive |
| CG10918 (GeneID 33123) | DRSC20472 | 66.8 | 103 | – | – | active |
| CG34015 (GeneID 3885570) | DRSC19140 | 86.5 | 121 | – | – | inactive |
| Cf2 (GeneID 33692) | DRSC00744 | 146 | 85.7 | – | – | inactive |
| Cf2 (GeneID 33692) | DRSC23015 | 168 | 144 | – | – | inactive |
| RpS26 (GeneID 35098) | DRSC03420 | 73 | 86.8 | – | – | active |
| CG31683 + CG18858 | DRSC02703 | 211 | 85.5 | – | – | inactive |
